# Source: PubChem BioAssay AID485298 (National Center for Advancing Translational Sciences (NCATS), 2010)
# Out of some 320,000 compounds screened, about 740 (0.23%) were called active. The shares of active, inactive and inconclusive entries below differ from those in the screen. The call rests on the fitted dose curve; in most records, active means well fitted activation curve with a large enough effect; inconclusive means small, poorly fitted or top-dose-only effect; inactive means no such curve, though single readings can be large or run the other way. Potencies beside an inconclusive call are fits to weak or partial responses and may not hold up.
# Assay: qHTS Assay for Small Molecule Inhibitors of Mitochondrial Division or Activators of Mitochondrial Fusion; further: nearly all actives have a fitted effect of over 45% in size
# Conditions: S. cerevisiae fusion-defective mutant growth rescue, CellTiterGlo 48 h; series mostly up to 46.1 µM
# Procedure, shortened: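 Luminescent cell viability in 1536-well qHTS format served as the measure of rescued growth in ts fusion-mutant S. cerevisiae cultured on non-fermentable YPEG for 48 hours at 37C.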
# Potency means the concentration at half of the fitted maximal effect.
row,Compound,Potency
1,CC1CC(=O)N(c2ccc(NCCc3ccccc3)c([N+](=O)[O-])c2)C1=O (stereo not given),"inconclusive: 3.55 µM [activator, partial curve]"
2,Cc1ccc(S(=O)(=O)NCC(c2ccco2)N2CCc3ccccc32)cc1 (stereo not given),"inconclusive: 20 µM [activator, single point]"
3,COc1ccc(OC(=O)c2cc3ccccc3o2)cc1,inactive
4,O=[N+]([O-])c1ccc(/C=N\NS(=O)(=O)c2ccc(F)cc2)o1,inactive
5,CCn1c(C)nc2cc(C(=O)N/N=C/c3ccc(O)c(O)c3O)ccc21,inactive
6,Cc1ccc(NC(=O)CN(C)CC(=O)Nc2ccccc2C#N)cc1,"inconclusive: 35.5 µM [activator, single point]"
7,CC1CCN(C(=O)c2cc3nc(-c4ccccc4)cc(-c4ccccc4)n3n2)CC1,"inconclusive: 17.8 µM [activator, partial curve]"
8,CC(C)(C)NCC(O)COc1ccccc1C1CCCC1 (stereo not given),"inconclusive: 17.8 µM [activator, partial curve]"
9,Cc1sc2nc3n(c(=O)c2c1C)NC(=O)CC3,"inconclusive: 35.5 µM [activator, single point]"
10,CC1CCCCN1Cc1nc2c(c(=O)n(C)c(=O)n2C)n1Cc1c(F)cccc1Cl (stereo not given),"inconclusive: 5.62 µM [activator, single point]"
11,CCCCc1c(C)nc2nc(SCc3ccc(Cl)cc3)[nH]n2c1=O,"inconclusive: 1.12 µM [activator, full curve]"
12,N#Cc1cccc(S(=O)(=O)NCCOc2ccccc2F)c1,inactive
13,O=C(N/N=C1\CCCCc2ccccc21)c1ccccn1,inactive
14,O=C(CNc1ccc(Br)cc1)Nc1ccc(S(=O)(=O)N2CCCC2)cc1,"inconclusive: 25.1 µM [activator, single point]"
15,COc1cccc(-c2nnc(NC(=O)c3ccc4ncsc4c3)o2)c1,"inconclusive: 6.31 µM [activator, partial curve]"
16,O=c1c2sc3nc(N4CCOCC4)c4c(c3c2ncn1-c1ccccc1)CCCC4,"inconclusive: 10 µM [activator, partial curve]"
17,Cc1ccc(-c2nn(-c3ccccc3)cc2NC(=O)c2ccccc2)cc1,"inconclusive: 20 µM [activator, partial curve]"
18,Cc1cccc(OCCn2c(=O)oc3ccc(C)cc32)c1,inactive
19,Cc1ccc(C(=O)N(Cc2nc3ccccc3c(=O)[nH]2)C2CCCC2)cc1,"inconclusive: 15.8 µM [activator, partial curve]"
20,Cc1ccc(C2(C)CC(C)(C)N(C(=O)CSc3nnc(C)s3)c3ccccc32)cc1 (stereo not given),"inconclusive: 31.6 µM [activator, single point]"
21,O=C(Nc1ccccc1)c1cccc(N2C(=O)C3C4C=CC(C5CC45)C3C2=O)c1 (stereo not given),inactive
22,CNC(=O)c1ccsc1NC(=O)c1ccccc1,"inconclusive: 14.1 µM [activator, partial curve]"
23,O=[N+]([O-])c1nn(-c2ccc3c(c2)OCCO3)n(O)c1=NC1CCCCC1,active: 12.6 µM
24,O=C(CSc1nc(-c2ccccc2)nc2c1CCCC2)N1CCOCC1,"inconclusive: 35.5 µM [activator, single point]"

row,Compound,Potency
1,O=C(CNS(=O)(=O)c1ccccc1)Nc1ccc2c(c1)OCO2,"inconclusive: 25.1 µM [activator, partial curve]"
2,CC1CCN(c2oc(-c3ccccc3F)nc2C#N)CC1,"inconclusive: 35.5 µM [activator, single point]"
3,O=C(CCS(=O)(=O)c1ccc(Br)cc1)N1CCN(c2ccccc2F)CC1,"inconclusive: 22.4 µM [activator, single point]"
4,CN(Cc1ccccc1F)C(=O)CCCNC(=O)c1ccc(Cl)cc1,"inconclusive: 31.6 µM [activator, single point]"
5,Cc1cc(C)c2c(CN3CCC(C)CC3)cc(=O)oc2c1,inactive
6,COc1ccc(OC)c(CNc2nc3ccccc3n2CCN2CCCCC2)c1,inactive
7,O=C(Cc1ccc(-c2ccccc2)cc1)NCc1ccccc1,inactive
8,CC(C)(C)Sc1ccc2nc3c(n2c1)CCCC3,inactive
9,CCOc1cc2nc(-c3ccc(OC)c(OC)c3)nc(N3CCOCC3)c2cc1OC,"inconclusive: 35.5 µM [activator, single point]"
10,NS(=O)(=O)c1cccc(NC(=S)NC(=O)C23CC4CC(CC(C4)C2)C3)c1,inactive
11,CCN(CC)CC(=O)Nc1ccc(Oc2ccc(NC(=O)CN(CC)CC)cc2)cc1,"inconclusive: 35.5 µM [activator, single point]"
12,CCc1nnc(NC(=O)CSc2nnc(-c3ccco3)n2CCOC)s1,active: 5.62 µM
13,O=C(COc1cccc(NC(=O)c2ccccc2)c1)c1ccc(F)cc1,"inconclusive: 14.1 µM [activator, partial curve]"
14,COc1ccc2c(c1)C(C)=CC(C)(C)N2C(=O)CSc1nnc(-c2ccc(C)cc2)o1,"inconclusive: 17.8 µM [activator, single point]"
15,Cc1ccc(Cl)cc1N1CCN(C(=O)Cc2cn(C)c3ccccc23)CC1,"inconclusive: 10 µM [activator, partial curve]"
16,C=CCCC1(C)C(=O)N(c2ccccc2)c2ccccc21 (stereo not given),"inconclusive: 10 µM [activator, partial curve]"
17,Cc1ccccc1CCNC(=O)c1cc(C2CC2)nc2c1cnn2C(C)C,"inconclusive: 25.1 µM [activator, single point]"
18,CCC(C)Oc1cc(-c2ccnc(Nc3cccc(Cl)c3)n2)ccn1 (stereo not given),inactive
19,Cc1cc(C(=O)OC(C)C(=O)N2CCc3ccccc32)ccc1[N+](=O)[O-] (stereo not given),"inconclusive: 7.94 µM [activator, partial curve]"
20,CO[C@H]1C=CO[C@@]2(C)Oc3c(C)c(O)c4c(O)c(c5c(c4c3C2=O)NC2(CCN(CC(C)C)CC2)N=5)=NC(=O)C(C)=CC=C[C@H](C)[C@H](O)[C@@H](C)[C@@H](O)[C@@H](C)[C@H](OC(C)=O)[C@@H]1C,"inconclusive: 31.6 µM [activator, single point]"
21,COc1ccc(OC)c(-c2nc3cc4ccccc4cc3nc2-c2ccccc2)c1,"inconclusive: 11.2 µM [activator, partial curve]"
22,Cc1sc(NC(=O)c2ccco2)c(C(c2cccnc2)N2CCN(c3ccc(F)cc3)CC2)c1C (stereo not given),inactive
23,CC(=O)NCCc1ccc(O)cc1,"inconclusive: 6.31 µM [activator, partial curve, poor fit]"
24,COc1ccc(OC)c(/C=C/C(=O)Nc2ccc3c(c2)CCC3)c1,"inconclusive: 12.6 µM [activator, partial curve]"

row,Compound,Potency
1,O=C(NC(=S)Nc1ccc2c(c1)OCCO2)c1cccc(Br)c1,inactive
2,CC1(c2nnc(-c3ccccc3)o2)CC(c2cccc(Cl)c2)=NO1 (stereo not given),active: 3.16 µM
3,O=[N+]([O-])c1cccc(-c2ccc(C(=S)N3CCN(c4ccccc4)CC3)o2)c1,inactive
4,COc1cc(-n2c(C)nc3cc(C(=O)O)ccc32)cc(OC)c1OC,inactive
5,CCCCCOc1ccc(NC(=O)C(=O)NCC2CCCN2CC)cc1 (stereo not given),inactive
6,Cc1ccc(S(=O)(=O)c2c(N)n(/N=C/c3ccco3)c3nc4ccccc4nc23)cc1C,"inconclusive: 3.16 µM [activator, partial curve]"
7,COc1ccc(C2=CC(=O)C[C@H](c3ccc(Cl)cc3)C2)cn1,"inconclusive: 12.6 µM [activator, single point]"
8,CC1CCC(NC(=O)c2cc(C3CC3)nn2-c2ccccc2)CC1 (stereo not given),"inconclusive: 12.6 µM [activator, partial curve]"
9,CCOC(=O)NC(=O)CSc1nc(-c2ccc(C)c(C)c2)cn1-c1ccccc1,"inconclusive: 31.6 µM [activator, single point]"
10,Cc1sc2nc(C3CC3)nc(SCC(=O)N3CCc4ccccc4C3)c2c1C,active: 12.6 µM
11,CCSc1nnc(-c2ccc(C)cc2)c2ccccc12,"inconclusive: 12.6 µM [activator, partial curve]"
12,CCOC(=O)C1CCCN(C(=O)c2ccc3c(c2)N(Cc2ccccc2)C(=O)c2ccccc2S3=O)C1 (stereo not given),"inconclusive: 35.5 µM [activator, partial curve]"
13,O=C(c1cc([N+](=O)[O-])ccc1Cl)N1c2ccccc2Sc2ccccc21,"inconclusive: 15.8 µM [activator, single point]"
14,Cc1noc(C)c1CSCC(=O)Nc1ccccc1N1CCCCC1,"inconclusive: 14.1 µM [activator, single point]"
15,CN1CCN(NS(=O)(=O)c2ccc(Cl)s2)CC1,inactive
16,C=C(C)c1cccc(C(C)(C)NC(=O)Nc2ccc(Cl)cn2)c1,"inconclusive: 15.8 µM [activator, single point]"
17,CSc1ccc(S(=O)(=O)N2CCC(C(=O)Nc3ccccc3C(F)(F)F)CC2)cc1,"inconclusive: 35.5 µM [activator, single point]"
18,COc1cccc(C(=O)Nc2ccc(NC(=O)c3cc4ccccc4o3)c(OC)c2)c1,inactive
19,CCNc1nc(NCc2ccccc2)nc(SCC(N)=O)n1,"inconclusive: 35.5 µM [activator, single point]"
20,COCc1c(C(=O)NC2CCCCC2)sc2cccc(F)c12,"inconclusive: 28.2 µM [activator, single point]"
21,O=C(O)c1cc(N/N=C/c2c(O)ccc3ccccc23)ccc1Cl,inactive
22,COc1ccc(N(C)S(=O)(=O)c2cccc(C(=O)N3CCN(Cc4ccc5c(c4)OCO5)CC3)c2)cc1,"inconclusive: 20 µM [activator, single point]"

# Retrieved by structure from above, 6 records:
row,Compound,Potency
11,CCSc1nnc(-c2ccc(C)cc2)c2ccccc12,"inconclusive: 12.6 µM [activator, partial curve]"
19,CCNc1nc(NCc2ccccc2)nc(SCC(N)=O)n1,"inconclusive: 35.5 µM [activator, single point]"
5,CCCCCOc1ccc(NC(=O)C(=O)NCC2CCCN2CC)cc1 (stereo not given),inactive
3,O=[N+]([O-])c1cccc(-c2ccc(C(=S)N3CCN(c4ccccc4)CC3)o2)c1,inactive
13,O=C(c1cc([N+](=O)[O-])ccc1Cl)N1c2ccccc2Sc2ccccc21,"inconclusive: 15.8 µM [activator, single point]"
17,CSc1ccc(S(=O)(=O)N2CCC(C(=O)Nc3ccccc3C(F)(F)F)CC2)cc1,"inconclusive: 35.5 µM [activator, single point]"
